Experimental data: PubChem BioAssay AID652243 (Drosophila RNAi Screening Center, 2013)
Aim: 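Knock-downs that decrease or increase androgen receptor reporter signal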 (primary screen). Cell system: Drosophila S2R+ cells. Knock-down reagent: long dsRNA against Drosophila genes. Time to read-out: 72 h (48 h, then 24 h hormone). Challenge: synthetic androgen R1881 at 10 nM for 24 h. Measurement: 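Firefly light from an androgen-responsive reporter and Renilla control light per well, raw and unnormalised, for each of two replicates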. Direction: firefly reporter light: higher = more light from androgen-responsive reporter; Renilla control light: higher = more constitutive control signal (cell number, transfection). Active means: 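Across duplicate plates, a knock-down whose log firefly/Renilla ratio shifted a set fold down or up from the GFP/LacZ control mean was a hit; the downward cut appears as both 1.5 and 3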. Calls: active = hit: reporter lowered or raised; inactive = no hit.
In all, the deposit lists about 24,000 reagents; this is an unselected part of those that have a named target and a result. In the full data, 246 (1%) got an active call. 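Plates not normalised; calls are printed but the firefly/Renilla ratio behind them is not deposited; fold cut for lowering reported inconsistently.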 Raw values are not corrected between plates. The record does not give: the amount of reagent.

Brms1 (BRMS1 transcriptional repressor) [SID104199688]
- firefly reporter light, replicate 1: 3.11e5
- firefly reporter light, replicate 2: 2.05e5
- Renilla control light, replicate 1: 2.46e6
- Renilla control light, replicate 2: 2.61e6
- activity call: inactive

CG12129 [SID104185897]
- firefly reporter light, replicate 1: 1.34e6
- firefly reporter light, replicate 2: 1.30e6
- Renilla control light, replicate 1: 1.66e6
- Renilla control light, replicate 2: 1.51e6
- activity call: inactive

CG8952 [SID104199925]
- firefly reporter light, replicate 1: 95208
- firefly reporter light, replicate 2: 1.09e5
- Renilla control light, replicate 1: 9.56e5
- Renilla control light, replicate 2: 7.29e5
- activity call: inactive

CG15747 [SID104199505]
- firefly reporter light, replicate 1: 48192
- firefly reporter light, replicate 2: 46257
- Renilla control light, replicate 1: 5.00e5
- Renilla control light, replicate 2: 4.80e5
- activity call: inactive

CG15747 [SID104207130]
- firefly reporter light, replicate 1: 7.26e5
- firefly reporter light, replicate 2: 6.34e5
- Renilla control light, replicate 1: 1.83e6
- Renilla control light, replicate 2: 1.05e6
- activity call: inactive

eIF4E7 (eukaryotic translation initiation factor 4E7) [SID104197574]
- firefly reporter light, replicate 1: 4.17e5
- firefly reporter light, replicate 2: 3.91e5
- Renilla control light, replicate 1: 4.68e6
- Renilla control light, replicate 2: 3.69e6
- activity call: inactive

eIF4E7 (eukaryotic translation initiation factor 4E7) [SID104198415]
- firefly reporter light, replicate 1: 1.87e5
- firefly reporter light, replicate 2: 1.92e5
- Renilla control light, replicate 1: 3.28e6
- Renilla control light, replicate 2: 2.26e6
- activity call: inactive

Pxt (Peroxinectin-like) [SID104196832]
- firefly reporter light, replicate 1: 1.51e5
- firefly reporter light, replicate 2: 1.80e5
- Renilla control light, replicate 1: 1.15e6
- Renilla control light, replicate 2: 1.36e6
- activity call: inactive

Oamb (Octopamine receptor in mushroom bodies) [SID104193225]
- firefly reporter light, replicate 1: 1.65e5
- firefly reporter light, replicate 2: 1.48e5
- Renilla control light, replicate 1: 1.26e5
- Renilla control light, replicate 2: 1.68e5
- activity call: inactive

Oamb (Octopamine receptor in mushroom bodies) [SID104194912]
- firefly reporter light, replicate 1: 1.76e5
- firefly reporter light, replicate 2: 2.30e5
- Renilla control light, replicate 1: 1.93e6
- Renilla control light, replicate 2: 2.04e6
- activity call: inactive

Oamb (Octopamine receptor in mushroom bodies) [SID104196555]
- firefly reporter light, replicate 1: 2.35e5
- firefly reporter light, replicate 2: 3.22e5
- Renilla control light, replicate 1: 3.40e6
- Renilla control light, replicate 2: 3.38e6
- activity call: inactive

CG34134 [SID104216271]
- firefly reporter light, replicate 1: 1.17e6
- firefly reporter light, replicate 2: 1.00e6
- Renilla control light, replicate 1: 1.97e6
- Renilla control light, replicate 2: 2.59e6
- activity call: inactive

Gal (beta galactosidase) [SID104182926]
- firefly reporter light, replicate 1: 1.96e5
- firefly reporter light, replicate 2: 1.19e5
- Renilla control light, replicate 1: 2.05e6
- Renilla control light, replicate 2: 9.48e5
- activity call: inactive

Gal (beta galactosidase) [SID104203263]
- firefly reporter light, replicate 1: 5.62e5
- firefly reporter light, replicate 2: 4.97e5
- Renilla control light, replicate 1: 6.97e5
- Renilla control light, replicate 2: 6.50e5
- activity call: inactive

An excerpt from above, showing only “Renilla control light, replicate 2”.
Gal (beta galactosidase) [SID104182926] = 9.48e5
Gal (beta galactosidase) [SID104203263] = 6.50e5
